Values from PubChem BioAssay AID652272 (Drosophila RNAi Screening Center, 2013)

Purpose: 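Genome-wide knock-down search for components of Hedgehog signalling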 (primary screen)
System: Drosophila clone 8 (Cl8) cells
Knock-down reagent: long dsRNA against Drosophila genes
Detection: 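Plate reader light from a firefly reporter under a ptc promoter fragment that responds to Hedgehog, with Renilla light as transfection reference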
Scale: firefly Hh reporter signal: higher = more ptc reporter light; Renilla reference signal: higher = more Renilla control light
Call rule: 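Hit when the z-score averaged over two replicates is under -2 or over +3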
Calls: active = hit: reporter lowered or raised; inactive = not a hit
In all, the deposit lists about 21,000 reagents; below is an unselected part of those that have a named target and a result. Of all reagents, 503 (2.4%) are marked active. 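Raw plate light values, not normalised; calls rest on replicate z-scores that were not deposited; hits include reporter decreases as well as increases.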 Not given: the amount of reagent, the time to read-out.

For CG10395 [DRSC04840], how do the results read?
firefly Hh reporter signal, replicate 1: 1.28e5; firefly Hh reporter signal, replicate 2: 1.00e5; Renilla reference signal, replicate 1: 4096; Renilla reference signal, replicate 2: 2967; activity call: inactive

How did the screen score Or42b [DRSC04913]?
firefly Hh reporter signal, replicate 1: 86701; firefly Hh reporter signal, replicate 2: 79435; Renilla reference signal, replicate 1: 1480; Renilla reference signal, replicate 2: 6139; activity call: inactive

Which result is listed for hiro [DRSC08564]?
firefly Hh reporter signal, replicate 1: 84821; firefly Hh reporter signal, replicate 2: 49004; Renilla reference signal, replicate 1: 4488; Renilla reference signal, replicate 2: 2640; activity call: inactive

What did the screen give for CG16989 [DRSC18535]?
firefly Hh reporter signal, replicate 1: 75179; firefly Hh reporter signal, replicate 2: 1.64e5; Renilla reference signal, replicate 1: 3003; Renilla reference signal, replicate 2: 6809; activity call: inactive

How did the screen score EMC4 [DRSC11638]?
firefly Hh reporter signal, replicate 1: 57491; firefly Hh reporter signal, replicate 2: 92392; Renilla reference signal, replicate 1: 1666; Renilla reference signal, replicate 2: 2455; activity call: inactive

For Ktl [DRSC14270], how do the results read?
firefly Hh reporter signal, replicate 1: 97033; firefly Hh reporter signal, replicate 2: 97633; Renilla reference signal, replicate 1: 4784; Renilla reference signal, replicate 2: 3832; activity call: inactive

What is on record for CG15742 [DRSC19708]?
firefly Hh reporter signal, replicate 1: 84499; firefly Hh reporter signal, replicate 2: 1.07e5; Renilla reference signal, replicate 1: 2541; Renilla reference signal, replicate 2: 2917; activity call: inactive

For CG4230 [DRSC02740], what was measured?
firefly Hh reporter signal, replicate 1: 67996; firefly Hh reporter signal, replicate 2: 98593; Renilla reference signal, replicate 1: 3384; Renilla reference signal, replicate 2: 4635; activity call: inactive

What is on record for TAF1C-like [DRSC04073]?
firefly Hh reporter signal, replicate 1: 2.09e5; firefly Hh reporter signal, replicate 2: 1.02e5; Renilla reference signal, replicate 1: 7100; Renilla reference signal, replicate 2: 4048; activity call: inactive

Which result is listed for lncRNA:CR32553 [DRSC19229]?
firefly Hh reporter signal, replicate 1: 6.24e5; firefly Hh reporter signal, replicate 2: 2.25e5; Renilla reference signal, replicate 1: 37403; Renilla reference signal, replicate 2: 5130; activity call: inactive

For Jhbp2 [DRSC12292], what was measured?
firefly Hh reporter signal, replicate 1: 1.14e5; firefly Hh reporter signal, replicate 2: 1.10e5; Renilla reference signal, replicate 1: 4993; Renilla reference signal, replicate 2: 2263; activity call: inactive

How did the screen score Rheb [DRSC12148]?
firefly Hh reporter signal, replicate 1: 1.31e5; firefly Hh reporter signal, replicate 2: 80698; Renilla reference signal, replicate 1: 4777; Renilla reference signal, replicate 2: 2986; activity call: inactive

What did the screen give for blow [DRSC07586]?
firefly Hh reporter signal, replicate 1: 80019; firefly Hh reporter signal, replicate 2: 60924; Renilla reference signal, replicate 1: 2572; Renilla reference signal, replicate 2: 2149; activity call: inactive

With CG13031 [DRSC09911], how do the results read?
firefly Hh reporter signal, replicate 1: 1.46e5; Renilla reference signal, replicate 1: 1692; Renilla reference signal, replicate 2: 6576; activity call: inactive

With CecC [DRSC16606], what does the deposit list?
firefly Hh reporter signal, replicate 1: 74624; firefly Hh reporter signal, replicate 2: 1.36e5; Renilla reference signal, replicate 1: 1904; Renilla reference signal, replicate 2: 3669; activity call: inactive

How did the screen score CG43312 [DRSC11559]?
firefly Hh reporter signal, replicate 1: 2.55e5; Renilla reference signal, replicate 1: 5306; activity call: inactive

With Cby [DRSC14591], what does the deposit list?
firefly Hh reporter signal, replicate 1: 7.79e5; firefly Hh reporter signal, replicate 2: 1.77e5; Renilla reference signal, replicate 1: 37728; Renilla reference signal, replicate 2: 2987; activity call: inactive

With CG15202 [DRSC19649], how do the results read?
firefly Hh reporter signal, replicate 1: 1.03e5; firefly Hh reporter signal, replicate 2: 2.35e5; Renilla reference signal, replicate 1: 2801; Renilla reference signal, replicate 2: 9456; activity call: inactive

For snRNP-U1-C [DRSC15804], how do the results read?
firefly Hh reporter signal, replicate 1: 5.28e5; firefly Hh reporter signal, replicate 2: 87165; Renilla reference signal, replicate 1: 29911; Renilla reference signal, replicate 2: 2572; activity call: inactive

How did the screen score ND-MNLL [DRSC18159]?
firefly Hh reporter signal, replicate 1: 60939; firefly Hh reporter signal, replicate 2: 1.80e5; Renilla reference signal, replicate 1: 2413; Renilla reference signal, replicate 2: 9408; activity call: inactive

With Ehbp1 [DRSC06561], how do the results read?
firefly Hh reporter signal, replicate 1: 1.29e5; firefly Hh reporter signal, replicate 2: 86069; Renilla reference signal, replicate 1: 5161; Renilla reference signal, replicate 2: 3082; activity call: inactive

With spidey [DRSC17932], what does the deposit list?
firefly Hh reporter signal, replicate 1: 78765; firefly Hh reporter signal, replicate 2: 2.81e5; Renilla reference signal, replicate 1: 2300; Renilla reference signal, replicate 2: 9733; activity call: inactive

With CG12992 [DRSC19512], what was measured?
firefly Hh reporter signal, replicate 1: 67769; firefly Hh reporter signal, replicate 2: 2.30e5; Renilla reference signal, replicate 1: 1901; Renilla reference signal, replicate 2: 7653; activity call: inactive

For CG8419 [DRSC03087], how do the results read?
firefly Hh reporter signal, replicate 1: 1.17e5; firefly Hh reporter signal, replicate 2: 68410; Renilla reference signal, replicate 1: 3394; Renilla reference signal, replicate 2: 6468; activity call: inactive

For CG14464 [DRSC07760], what does the deposit list?
firefly Hh reporter signal, replicate 1: 67072; firefly Hh reporter signal, replicate 2: 38710; Renilla reference signal, replicate 1: 2256; Renilla reference signal, replicate 2: 3144; activity call: inactive

Which result is listed for lmd [DRSC15618]?
firefly Hh reporter signal, replicate 1: 1.06e5; firefly Hh reporter signal, replicate 2: 62112; Renilla reference signal, replicate 1: 4458; Renilla reference signal, replicate 2: 2893; activity call: inactive

With Cpr47Eb [DRSC06345], what was measured?
firefly Hh reporter signal, replicate 1: 1.04e5; firefly Hh reporter signal, replicate 2: 42593; Renilla reference signal, replicate 1: 2748; Renilla reference signal, replicate 2: 3609; activity call: inactive

3 consecutive reagents from above, quoted:
CG16989 [DRSC18535] | firefly Hh reporter signal, replicate 1: 75179; firefly Hh reporter signal, replicate 2: 1.64e5; Renilla reference signal, replicate 1: 3003; Renilla reference signal, replicate 2: 6809; activity call: inactive
EMC4 [DRSC11638] | firefly Hh reporter signal, replicate 1: 57491; firefly Hh reporter signal, replicate 2: 92392; Renilla reference signal, replicate 1: 1666; Renilla reference signal, replicate 2: 2455; activity call: inactive
Ktl [DRSC14270] | firefly Hh reporter signal, replicate 1: 97033; firefly Hh reporter signal, replicate 2: 97633; Renilla reference signal, replicate 1: 4784; Renilla reference signal, replicate 2: 3832; activity call: inactive
